PubChem BioAssay AID493014 (National Center for Advancing Translational Sciences (NCATS), 2011)
The other results are listed elsewhere or left out. Further columns of the screen follow, without active or inactive calls. Compounds called inactive in the main read-out are mostly missing here. The note in brackets gives the kind of curve behind each potency; many fits are weak.

Assay: qHTS Assay to Find Inhibitors of Chronic Active B-Cell Receptor Signaling
Settings: ABC-DLBCL IkBa-CBG/CBR reporter, luminescence ratio (green luciferase fused to IkBa over red control in TMD8 lymphoma cells), 4 h
Outline: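 TMD8 human ABC-DLBCL cells with doxycycline-inducible IκBα–green luciferase fusion and unfused red luciferase, in 0.5% FBS medium; compounds up to 46 uM, 4 h at 37C. Green/red luminescence ratio, filter-overlap corrected, fitted to concentration-response curves.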

[1] = measured here: CBR red luminescence, cell number
[2] = measured here: IkBa-CBG green luminescence

Compound	AC50 [1]	AC50 [2]
O=C(O)CC1(CC(=O)NCc2ccc(Cl)cc2)CCCCC1	15.8 µM [rising, single point]	
COc1cccc(NC(=O)c2ccco2)c1	0.206 µM [falling, full curve]	
CN(c1ccccc1)S(=O)(=O)c1ccc(NC(=S)Nc2ccccc2)cc1	8.91 µM [rising, partial curve, poor fit]	
O=C(CCC(=O)Nc1nnc(C2CCCCC2)s1)Nc1ccc(F)cc1	5.62 µM [rising, single point]	
CC1(C)Cc2c(C#N)c(N3CCCC3)nc(-c3ccco3)c2CO1	0.708 µM [falling, full curve, poor fit]	
CC1CC(C)CN(S(=O)(=O)c2ccc3c(c2)CCN3C(=O)C2CC2)C1 (stereo not drawn)	35.5 µM [rising, single point]	
COc1ccccc1N1CCN(C(=O)CSc2nnc3c4ccccc4nc(Cc4ccccc4)n23)CC1	0.116 µM [rising, full curve, poor fit]	
CC/C(=N\NC(=S)NC(C)C)c1ccc(OC)c(OC)c1	22.4 µM [falling, single point]	22.4 µM [falling, single point]
COc1cc(/C=N\NC(=O)c2ccc(Cn3nc([N+](=O)[O-])c(Cl)c3C)o2)ccc1O	16.4 µM [falling, single point]	
CCOC(=O)C1=C(c2cccc(Oc3ccccc3)c2)NC(=S)NC1C (stereo not drawn)	32.6 µM [falling, partial curve, poor fit]	
O=C(CN(c1ccccc1)S(=O)(=O)c1ccccc1)Nc1ccccc1C(=O)NCc1ccco1	9.2 µM [falling, partial curve]	
O=S(=O)(c1ccc(C2CCCCC2)cc1)N1CCCC1	0.282 µM [rising, full curve, poor fit]	
Cc1ccc(NC(=O)COC(=O)c2sccc2C)cc1S(=O)(=O)N1CCOCC1	11.6 µM [falling, partial curve, poor fit]	
CCN1/C(=C/c2ccc3cc(C)ccc3[n+]2C)Sc2ccc3sccc3c21	12.6 µM [falling, partial curve, poor fit]	
Cc1ccc(C)c(S(=O)(=O)N2CCCOC2CNC(=O)C(=O)NC2CCCCC2)c1 (stereo not drawn)	12.6 µM [falling, partial curve]	
COc1ccc(NC(=O)c2cc3ccc(O)cc3o/c2=N\O)cc1		15.8 µM [rising, partial curve, poor fit]
Cc1cccc(-c2noc(CCC(=O)Nc3ccccc3)n2)c1	6.51 µM [rising, full curve, poor fit]	

4 compounds out of the list, ordered by count of non-hydrogen atoms, smallest number first:
Compound	AC50 [1]	AC50 [2]
COc1cccc(NC(=O)c2ccco2)c1	0.206 µM [falling, full curve]	
CC1(C)Cc2c(C#N)c(N3CCCC3)nc(-c3ccco3)c2CO1	0.708 µM [falling, full curve, poor fit]	
CC1CC(C)CN(S(=O)(=O)c2ccc3c(c2)CCN3C(=O)C2CC2)C1 (stereo not drawn)	35.5 µM [rising, single point]	
Cc1ccc(NC(=O)COC(=O)c2sccc2C)cc1S(=O)(=O)N1CCOCC1	11.6 µM [falling, partial curve, poor fit]	
